# Laboratory results published in PubChem BioAssay AID2685 (National Center for Advancing Translational Sciences (NCATS), 2010).
# This is one part of the list. Further columns of the screen follow, without active or inactive calls. The list favours compounds with an active or inconclusive main result. Potencies come from curve fits of mixed quality, noted in brackets.
# Test: qHTS Assay for Lipid Storage Modulators in Drosophila S3 Cells;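 as to cell number change: cells counted by Cell Tracker Red CMTPX staining in the red channel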
# Settings: BODIPY lipid droplet fluorescence, 18-24 h; for cell number change: measured here: cell count max response, cells fed with added oleic acid
# Method in brief: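 Drosophila S3 cells loaded with oleic acid (400 uM, as added) and compounds at several concentrations; lipid droplets imaged by 488-nm laser-scanning cytometry, 500–530 nm intensity and object ratio to cell channel. Percent activity normalized to 20 uM Triacsin C.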
# [1] = measured here: lipid fluorescence (Fed channel) AC50, cells fed with added oleic acid
# [2] = measured here: cell number channel AC50, cells fed with added oleic acid
structure (smiles),measurement,setting,value
Cc1ccc(OCC(=O)NCCCNC(=O)c2ccccn2)cc1C,cell number change,,-8.75%
same,AC50,[1],"9.2 µM [falling, single point]"
CSc1ccccc1-c1nnc(-c2ccc(Cl)cc2Cl)o1,cell number change,,-29%
same,AC50,[2],"1.64 µM [falling, single point]"
CC1(C(=O)NC(=S)N(CCC#N)Cc2cccnc2)CC1(Cl)Cl (configuration not stated),cell number change,,63.7%
same,AC50,[2],"29.1 µM [rising, single point]"
Cc1[nH][nH]c(=O)c1C(c1ccc(-c2ccc(Cl)c(C(=O)O)c2)o1)c1c(C)[nH][nH]c1=O,cell number change,,-23.6%
same,AC50,[2],"0.0326 µM [rising, full curve, poor fit]"
CC(C)(C)c1ccc(NC(=O)Nc2ccc(F)cc2)cc1,cell number change,,8.92%
CC(C(=O)N(C)C1CCS(=O)(=O)C1)N1C(=O)/C(=C/c2ccco2)SC1=S (configuration not stated),cell number change,,-0.806%
same,AC50,[1],"1.03 µM [falling, full curve]"
O=C(Cc1ccccc1)NC(NCCCN1CCOCC1)(C(F)(F)F)C(F)(F)F,cell number change,,2.53%
same,AC50,[2],"0.103 µM [rising, full curve]"
same,AC50,[1],"5.8 µM [falling, single point]"
CC1(C)CC(=O)C2=C(C1)N(Cc1ccc(F)cc1)C(=O)C2(NC(=O)c1cccnc1)C(F)(F)F (configuration not stated),cell number change,,10.3%
same,AC50,[1],"6.51 µM [rising, single point]"
CCCCNCC#CCOc1cc(C)ccc1C(C)C,cell number change,,22.9%
CCCn1c(N)c(N2CCCCC2)c(=O)n(CC(=O)Nc2ccc(OC(F)(F)F)cc2)c1=O,cell number change,,23.1%
same,AC50,[1],"6.51 µM [rising, partial curve, poor fit]"
CC(C)C(NC(=O)COc1ccccc1)C(=O)O (configuration not stated),AC50,[1],"25.9 µM [falling, partial curve]"
O=C(NCc1ccccc1)c1c(O)c2ccccc2[nH]c1=O,cell number change,,7.42%
same,AC50,[1],"6.51 µM [rising, single point]"
Cc1ccc(N2C(=S)NC3c4cc(Cl)ccc4OC2(C)C3C(=O)N(C)C)cc1 (configuration not stated),AC50,[1],"0.00411 µM [falling, full curve, poor fit]"
COc1ccc(C(=O)OCC(=O)Nc2nc3c(F)c(F)c(F)cc3s2)cc1OC,AC50,[1],"6.51 µM [rising, single point]"
COc1ccccc1CCc1nnc(CCC(=O)NCC[C@@H]2C[C@@H]3C=C[C@H]2C3)o1,cell number change,,-48.1%
same,AC50,[2],"25.9 µM [falling, partial curve]"
same,AC50,[1],"20.6 µM [falling, partial curve]"
Cc1ccc(-c2nnn(Cc3nc(N)nc(N4CCOCC4)n3)n2)cc1,cell number change,,-12.5%
Cc1ccc(C2C(C#N)=C(N)OC3=C2C(=O)CC(C)(C)C3)s1 (configuration not stated),cell number change,,-18.3%
same,AC50,[1],"1.64 µM [falling, partial curve, poor fit]"
O=C(CSc1nc2ccccc2[nH]1)N=Nc1c(O)[nH]c2ccccc12,cell number change,,-12.7%
same,AC50,[1],"18.4 µM [falling, single point]"
COC(=O)c1ccc(OC(=O)c2ccco2)cc1,cell number change,,4.65%
same,AC50,[1],"29.1 µM [falling, single point]"
CCN(CC)CCCn1c(=S)[nH]c2cc(C(=O)OC)ccc2c1=O,AC50,[1],"4.11 µM [falling, partial curve]"
COc1ccc2oc(C(=O)N3CCN(C(=O)c4ccco4)CC3)c(C)c2c1,cell number change,,-13.2%
same,AC50,[1],"29.1 µM [falling, single point]"
O=S(=O)([O-])CCC[n+]1ccc(Oc2ccccc2)cc1,cell number change,,0.549%
same,AC50,[2],"0.00461 µM [falling, full curve, poor fit]"
same,AC50,[1],"0.58 µM [rising, single point]"
C=CCc1c(C)nc(SCc2ccccc2)[nH]c1=O,cell number change,,-12.1%
Cc1csc(NC(=O)C2COc3ccccc3O2)n1 (configuration not stated),cell number change,,23.9%
same,AC50,[1],"0.58 µM [falling, single point]"
CC(=O)N1CCN(S(=O)(=O)c2ccc(C)cc2)C1C (configuration not stated),cell number change,,-54.6%
same,AC50,[2],"20.6 µM [falling, single point]"
same,AC50,[1],"20.6 µM [falling, single point]"
CCCCC(CC)CN=C(N)NC(N)=NCCCCCCN=C(N)NC(N)=NCC(CC)CCCC (configuration not stated),cell number change,,-83.1%
same,AC50,[2],"7.31 µM [falling, partial curve]"
same,AC50,[1],"6.51 µM [falling, full curve]"
Cc1cc(C(=O)O)cc(S(=O)(=O)NNC(=O)c2cccs2)c1C,cell number change,,49.6%
same,AC50,[2],"29.1 µM [rising, single point]"
same,AC50,[1],"0.58 µM [falling, single point]"
CCN(CC)S(=O)(=O)c1cccc(C(=O)N[C@H](C(=O)NCc2ccc(Cl)cc2)C(C)C)c1,cell number change,,72.2%
same,AC50,[2],"18.4 µM [rising, single point]"
same,AC50,[1],"23.1 µM [rising, single point]"
CC(C)C[C@H](NC(=O)c1nc[nH]c1C(=O)NC1CCNCC1)C(=O)OC(C)(C)C,AC50,[2],"6.51 µM [falling, single point]"
same,AC50,[1],"6.51 µM [falling, single point]"
CC1(C)CN(c2ccccc2)N(Cc2ccc(F)cc2)C1=O,cell number change,,-12.1%
same,AC50,[1],"10.3 µM [falling, partial curve]"
O=C(NNC1=Nc2cccc3cccc1c23)c1ccc(Br)cc1,cell number change,,-6.07%
same,AC50,[2],"0.146 µM [falling, full curve, poor fit]"
CCOc1cnn(-c2ccccc2)c(=O)c1Cl,cell number change,,-21%
same,AC50,[2],"0.231 µM [falling, full curve, poor fit]"
same,AC50,[1],"3.26 µM [falling, single point]"
CC(C)OC(=O)c1cc(C(=O)c2cc(F)ccc2O)coc1=N,AC50,[1],"1.3 µM [falling, full curve]"
CC1(C)CN=C(N2CCN(C3=NCC(C)(C)S3)CC2)S1,cell number change,,3%
CN(C)CCn1c(=O)n(Cc2ccccc2)c(=O)c2c3c(sc21)CCCCC3,cell number change,,16.2%
CCOc1ccc2nc(NC(=O)CN3CCN(CC)CC3)sc2c1,cell number change,,0.824%
Cc1ccc(-n2c3nc(=O)[nH]c(=O)c-3cc3c(C)nn(-c4ccccc4)c32)c(C)c1,cell number change,,7.56%
CCN(CC)C(=O)Cn1c(=O)n(CCCC(=O)NCc2ccc3c(c2)OCO3)c(=O)c2sccc21,cell number change,,13.4%
same,AC50,[1],"0.13 µM [falling, partial curve, poor fit]"
O=Cc1cn(-c2ccccc2)nc1-c1cc2ccccc2oc1=O,cell number change,,30.2%
same,AC50,[2],"9.2 µM [rising, partial curve, poor fit]"
O=C(/C=C/c1ccc(Cl)cc1)NCc1ccncc1,cell number change,,15%
COc1ccc(C(=O)N2CCN(c3nc4ccccc4o3)CC2)cc1OC,cell number change,,-38.4%
same,AC50,[2],"7.31 µM [falling, partial curve, poor fit]"
Clc1ccc(Cn2c(-c3cccnc3Cl)nc3ccccc32)cc1,cell number change,,20%
same,AC50,[1],"29.1 µM [rising, single point]"
O=C(c1cn(-c2ccccc2)nc1-c1ccccc1)n1nnc2ccccc21,cell number change,,-2.81%
same,AC50,[1],"1.03 µM [falling, full curve, poor fit]"
S=C(NCCc1ccc(Cl)cc1)NC1CC1,cell number change,,13.7%
same,AC50,[1],"15.8 µM [rising, single point]"
CC1(C)Cc2c(cnn2-c2ccc(F)cc2)C(NC(=O)CCCN2CCCCC2=O)C1 (configuration not stated),cell number change,,-1.47%
same,AC50,[1],"29.1 µM [falling, single point]"
Cc1c(NC(=O)c2ccc(Br)o2)cccc1C(=O)O,cell number change,,38.4%
same,AC50,[2],"29.1 µM [rising, single point]"
CCOc1ccccc1NC(=O)NC1CC2CCCC(C1)N2Cc1nnnn1CCc1ccccc1 (configuration not stated),cell number change,,31.8%
same,AC50,[2],"0.259 µM [rising, full curve, poor fit]"
same,AC50,[1],"0.411 µM [rising, partial curve, poor fit]"
COc1ccc(-c2cc(-c3ccc(Cl)cc3)c(C#N)c(SCC(=O)O)n2)cc1,AC50,[2],"0.00517 µM [falling, full curve, poor fit]"
Cc1ccnc(SCC(=O)c2cccs2)n1,cell number change,,34.7%
Cc1cccc(OCCN2C(=O)C(=O)c3cc(C)ccc32)c1,cell number change,,-56.6%
same,AC50,[2],"18.4 µM [falling, partial curve]"
same,AC50,[1],"0.517 µM [falling, single point]"
C/C(CC(=O)Nc1ccc([N+](=O)[O-])cc1)=N/NC(=O)C1CC12CCC2 (configuration not stated),cell number change,,-19.2%
CCCOP(=O)(c1ccc(N(C)C)cc1)C(O)c1ccc(N(C)C)cc1 (configuration not stated),cell number change,,-15.3%
same,AC50,[1],"29.1 µM [rising, single point]"
CCOC(=O)[C@H]1[C@H]2COc3cc(OC)ccc3[C@@H]2N2C(=O)N(c3ccc(Cl)cc3)C(=O)[C@@]12C,cell number change,,28.5%
same,AC50,[1],"29.1 µM [rising, single point]"
CCCN(CCC)c1nc2ccccc2nc1C(C#N)C(=O)OCCOC (configuration not stated),cell number change,,4.34%
same,AC50,[2],"0.651 µM [rising, single point]"
same,AC50,[1],"1.3 µM [rising, full curve]"
CN(C)/C(=N\S(=O)(=O)c1ccccc1)c1ccc(F)cc1,cell number change,,12.2%
same,AC50,[1],"0.13 µM [rising, full curve, poor fit]"
COc1cc(C(=O)NCc2nnc(SCC(=O)Nc3cccc(C(F)(F)F)c3)o2)cc(OC)c1OC,AC50,[1],"1.3 µM [falling, partial curve]"
Cc1cc([N+](=O)[O-])nn1CCCC(=O)Nc1sc2c(c1C(N)=O)CCC(C)C2 (configuration not stated),cell number change,,-18.2%
Cc1ccc2nc(SCCC#N)nc(C)c2c1,cell number change,,12.2%
CC(C)Cn1c(N)c(C(=O)COC(=O)c2cc(-c3ccccc3)nc3ccccc23)c(=O)n(C)c1=O,cell number change,,15.6%
same,AC50,[1],"1.84 µM [rising, partial curve]"
O=C(COc1ncnc2sccc12)Nc1ccc2c(c1)OCCO2,cell number change,,29.6%
same,AC50,[1],"7.31 µM [rising, partial curve]"
N#CCC(=O)Nc1ccc(C(=O)OCC(=O)NC(=O)Cc2ccccc2)cc1,cell number change,,9%

# Part of the list above in another layout:
structure (smiles)	measurement	setting	value
CSc1ccccc1-c1nnc(-c2ccc(Cl)cc2Cl)o1	AC50	[2]	1.64 µM [falling, single point]
CC(C)(C)c1ccc(NC(=O)Nc2ccc(F)cc2)cc1	cell number change		8.92%
CC(C(=O)N(C)C1CCS(=O)(=O)C1)N1C(=O)/C(=C/c2ccco2)SC1=S (configuration not stated)	AC50	[1]	1.03 µM [falling, full curve]
O=C(NCc1ccccc1)c1c(O)c2ccccc2[nH]c1=O	cell number change		7.42%
Cc1ccc(C2C(C#N)=C(N)OC3=C2C(=O)CC(C)(C)C3)s1 (configuration not stated)	cell number change		-18.3%
O=C(CSc1nc2ccccc2[nH]1)N=Nc1c(O)[nH]c2ccccc12	cell number change		-12.7%
O=S(=O)([O-])CCC[n+]1ccc(Oc2ccccc2)cc1	cell number change		0.549%
same	AC50	[1]	0.58 µM [rising, single point]
CC(=O)N1CCN(S(=O)(=O)c2ccc(C)cc2)C1C (configuration not stated)	cell number change		-54.6%
same	AC50	[1]	20.6 µM [falling, single point]
CCN(CC)S(=O)(=O)c1cccc(C(=O)N[C@H](C(=O)NCc2ccc(Cl)cc2)C(C)C)c1	AC50	[2]	18.4 µM [rising, single point]
CC1(C)CN(c2ccccc2)N(Cc2ccc(F)cc2)C1=O	cell number change		-12.1%
CCOc1ccc2nc(NC(=O)CN3CCN(CC)CC3)sc2c1	cell number change		0.824%
O=Cc1cn(-c2ccccc2)nc1-c1cc2ccccc2oc1=O	AC50	[2]	9.2 µM [rising, partial curve, poor fit]
CCOc1ccccc1NC(=O)NC1CC2CCCC(C1)N2Cc1nnnn1CCc1ccccc1 (configuration not stated)	AC50	[2]	0.259 µM [rising, full curve, poor fit]
Cc1cccc(OCCN2C(=O)C(=O)c3cc(C)ccc32)c1	AC50	[2]	18.4 µM [falling, partial curve]
same	AC50	[1]	0.517 µM [falling, single point]
CCCOP(=O)(c1ccc(N(C)C)cc1)C(O)c1ccc(N(C)C)cc1 (configuration not stated)	cell number change		-15.3%
CCCN(CCC)c1nc2ccccc2nc1C(C#N)C(=O)OCCOC (configuration not stated)	AC50	[1]	1.3 µM [rising, full curve]
COc1cc(C(=O)NCc2nnc(SCC(=O)Nc3cccc(C(F)(F)F)c3)o2)cc(OC)c1OC	AC50	[1]	1.3 µM [falling, partial curve]
CC(C)Cn1c(N)c(C(=O)COC(=O)c2cc(-c3ccccc3)nc3ccccc23)c(=O)n(C)c1=O	cell number change		15.6%
O=C(COc1ncnc2sccc12)Nc1ccc2c(c1)OCCO2	cell number change		29.6%
